Results taken from the supplement of paper PMC10849652.
Some of the results follow.

Chains of the proteins cited; added tags and fusions are not shown. Lines headed by an entry give the natural chain unless they say otherwise; changes in a name come on top.
UniProt O00471: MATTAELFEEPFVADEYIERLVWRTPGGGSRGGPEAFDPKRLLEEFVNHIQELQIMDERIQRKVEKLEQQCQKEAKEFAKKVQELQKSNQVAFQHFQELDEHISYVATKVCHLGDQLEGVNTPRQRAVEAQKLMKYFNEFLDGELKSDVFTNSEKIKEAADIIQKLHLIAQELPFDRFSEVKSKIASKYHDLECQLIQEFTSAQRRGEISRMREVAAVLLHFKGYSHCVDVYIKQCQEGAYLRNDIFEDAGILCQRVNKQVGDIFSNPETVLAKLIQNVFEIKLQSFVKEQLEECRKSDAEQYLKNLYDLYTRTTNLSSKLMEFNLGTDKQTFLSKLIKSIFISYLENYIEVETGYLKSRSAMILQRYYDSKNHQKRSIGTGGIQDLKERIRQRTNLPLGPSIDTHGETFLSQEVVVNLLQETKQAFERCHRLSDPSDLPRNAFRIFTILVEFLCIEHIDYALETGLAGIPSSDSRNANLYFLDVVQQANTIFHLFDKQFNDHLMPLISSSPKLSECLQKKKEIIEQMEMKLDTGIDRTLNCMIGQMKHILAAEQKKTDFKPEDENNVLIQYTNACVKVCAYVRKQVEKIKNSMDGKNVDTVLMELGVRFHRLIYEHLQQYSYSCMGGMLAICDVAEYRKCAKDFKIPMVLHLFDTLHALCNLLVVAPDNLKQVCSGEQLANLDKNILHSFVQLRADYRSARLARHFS
UniProt Q9NQT5, whole entry, looked up: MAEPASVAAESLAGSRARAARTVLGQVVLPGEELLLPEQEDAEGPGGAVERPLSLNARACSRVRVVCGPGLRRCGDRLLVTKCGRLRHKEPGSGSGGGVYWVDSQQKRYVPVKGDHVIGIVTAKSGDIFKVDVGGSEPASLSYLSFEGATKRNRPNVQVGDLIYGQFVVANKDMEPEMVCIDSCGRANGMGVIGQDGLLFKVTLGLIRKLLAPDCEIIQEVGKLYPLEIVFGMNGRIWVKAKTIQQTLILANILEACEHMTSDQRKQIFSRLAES
UniProt P38117: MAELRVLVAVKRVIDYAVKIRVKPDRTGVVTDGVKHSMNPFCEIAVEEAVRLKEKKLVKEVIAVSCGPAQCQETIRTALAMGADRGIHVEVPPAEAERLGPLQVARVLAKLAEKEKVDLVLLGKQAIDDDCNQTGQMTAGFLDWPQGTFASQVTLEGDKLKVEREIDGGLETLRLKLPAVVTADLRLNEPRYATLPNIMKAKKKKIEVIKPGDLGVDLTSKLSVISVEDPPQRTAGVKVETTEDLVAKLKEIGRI
UniProt Q96B26, whole entry, looked up: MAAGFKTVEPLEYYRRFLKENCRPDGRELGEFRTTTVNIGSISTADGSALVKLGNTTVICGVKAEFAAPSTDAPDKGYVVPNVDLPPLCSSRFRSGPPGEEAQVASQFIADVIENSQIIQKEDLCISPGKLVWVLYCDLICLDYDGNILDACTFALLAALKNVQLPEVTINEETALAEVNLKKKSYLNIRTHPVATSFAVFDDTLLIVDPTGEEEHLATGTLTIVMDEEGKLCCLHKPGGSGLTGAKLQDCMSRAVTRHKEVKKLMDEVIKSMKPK
UniProt P16930: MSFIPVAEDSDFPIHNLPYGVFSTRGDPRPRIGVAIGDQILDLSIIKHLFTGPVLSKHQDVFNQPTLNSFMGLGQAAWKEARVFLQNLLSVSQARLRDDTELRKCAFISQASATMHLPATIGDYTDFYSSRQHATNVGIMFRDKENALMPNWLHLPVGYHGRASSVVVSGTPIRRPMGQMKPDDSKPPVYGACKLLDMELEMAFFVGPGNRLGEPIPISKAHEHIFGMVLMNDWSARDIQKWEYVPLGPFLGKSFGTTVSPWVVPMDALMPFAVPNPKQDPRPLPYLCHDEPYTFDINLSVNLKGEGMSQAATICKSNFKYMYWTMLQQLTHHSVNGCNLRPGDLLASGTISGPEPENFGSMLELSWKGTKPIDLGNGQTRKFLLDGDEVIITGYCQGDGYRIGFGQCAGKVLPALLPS
UniProt Q8TBG4: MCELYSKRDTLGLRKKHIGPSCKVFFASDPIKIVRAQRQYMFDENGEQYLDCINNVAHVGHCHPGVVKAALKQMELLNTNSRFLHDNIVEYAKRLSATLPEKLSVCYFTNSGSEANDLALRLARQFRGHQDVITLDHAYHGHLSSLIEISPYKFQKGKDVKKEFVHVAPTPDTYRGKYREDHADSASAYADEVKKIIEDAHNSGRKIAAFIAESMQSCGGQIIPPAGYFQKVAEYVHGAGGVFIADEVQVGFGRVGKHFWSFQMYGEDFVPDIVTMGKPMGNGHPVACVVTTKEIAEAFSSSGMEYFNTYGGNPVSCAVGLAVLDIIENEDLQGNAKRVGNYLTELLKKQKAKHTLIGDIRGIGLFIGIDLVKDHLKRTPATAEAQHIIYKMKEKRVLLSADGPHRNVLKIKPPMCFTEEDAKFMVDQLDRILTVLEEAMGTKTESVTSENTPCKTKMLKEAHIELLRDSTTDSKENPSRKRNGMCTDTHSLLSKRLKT
UniProt Q9NZ08: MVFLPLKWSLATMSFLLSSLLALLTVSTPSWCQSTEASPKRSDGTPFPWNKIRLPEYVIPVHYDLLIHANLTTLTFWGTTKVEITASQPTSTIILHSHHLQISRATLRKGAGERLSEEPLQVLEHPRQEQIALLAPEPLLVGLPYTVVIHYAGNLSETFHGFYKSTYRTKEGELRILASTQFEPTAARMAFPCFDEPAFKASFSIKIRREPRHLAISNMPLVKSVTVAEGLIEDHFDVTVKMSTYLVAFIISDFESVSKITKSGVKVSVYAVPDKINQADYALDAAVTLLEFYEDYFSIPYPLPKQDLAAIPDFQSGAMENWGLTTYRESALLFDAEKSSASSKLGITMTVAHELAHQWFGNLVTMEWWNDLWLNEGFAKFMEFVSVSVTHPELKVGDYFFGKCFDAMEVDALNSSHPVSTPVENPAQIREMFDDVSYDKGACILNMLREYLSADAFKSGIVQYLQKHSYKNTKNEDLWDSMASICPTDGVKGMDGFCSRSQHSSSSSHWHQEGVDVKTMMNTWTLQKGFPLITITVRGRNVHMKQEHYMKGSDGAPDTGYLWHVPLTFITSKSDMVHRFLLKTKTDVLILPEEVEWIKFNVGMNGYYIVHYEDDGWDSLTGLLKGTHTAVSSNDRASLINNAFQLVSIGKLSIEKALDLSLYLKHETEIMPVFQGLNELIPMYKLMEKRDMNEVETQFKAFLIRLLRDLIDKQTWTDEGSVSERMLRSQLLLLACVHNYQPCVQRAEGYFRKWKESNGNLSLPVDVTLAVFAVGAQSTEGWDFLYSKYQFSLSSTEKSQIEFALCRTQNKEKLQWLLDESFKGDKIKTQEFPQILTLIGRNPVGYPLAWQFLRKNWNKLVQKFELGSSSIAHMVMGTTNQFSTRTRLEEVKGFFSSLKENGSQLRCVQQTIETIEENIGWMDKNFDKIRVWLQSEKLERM
UniProt P16422: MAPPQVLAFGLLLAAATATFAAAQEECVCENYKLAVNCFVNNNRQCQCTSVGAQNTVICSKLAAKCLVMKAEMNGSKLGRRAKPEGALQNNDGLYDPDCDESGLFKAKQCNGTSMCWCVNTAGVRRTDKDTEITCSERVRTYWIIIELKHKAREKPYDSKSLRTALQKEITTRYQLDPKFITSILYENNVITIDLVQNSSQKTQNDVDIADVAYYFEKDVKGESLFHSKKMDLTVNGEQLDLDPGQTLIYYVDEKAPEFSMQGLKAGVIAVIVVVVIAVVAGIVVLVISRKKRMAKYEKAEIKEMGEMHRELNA
UniProt Q93063: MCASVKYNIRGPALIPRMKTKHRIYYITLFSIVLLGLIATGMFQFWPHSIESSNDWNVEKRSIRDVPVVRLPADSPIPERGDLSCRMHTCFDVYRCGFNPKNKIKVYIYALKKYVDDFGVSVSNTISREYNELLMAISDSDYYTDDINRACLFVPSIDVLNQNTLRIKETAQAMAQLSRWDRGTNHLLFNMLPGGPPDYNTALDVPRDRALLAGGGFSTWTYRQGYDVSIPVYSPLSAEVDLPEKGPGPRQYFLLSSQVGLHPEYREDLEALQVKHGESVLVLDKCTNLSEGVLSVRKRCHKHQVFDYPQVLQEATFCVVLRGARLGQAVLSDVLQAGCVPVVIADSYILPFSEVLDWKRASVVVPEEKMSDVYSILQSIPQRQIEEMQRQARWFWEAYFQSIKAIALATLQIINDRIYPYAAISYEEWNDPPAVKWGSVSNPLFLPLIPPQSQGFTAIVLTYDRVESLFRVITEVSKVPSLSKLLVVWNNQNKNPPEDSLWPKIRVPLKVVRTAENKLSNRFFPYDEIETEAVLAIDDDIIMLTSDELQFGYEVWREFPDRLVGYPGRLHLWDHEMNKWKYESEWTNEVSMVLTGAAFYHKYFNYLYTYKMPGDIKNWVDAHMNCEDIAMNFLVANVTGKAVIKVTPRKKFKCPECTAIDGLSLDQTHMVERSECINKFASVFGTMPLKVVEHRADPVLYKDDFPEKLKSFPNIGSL
UniProt O43414: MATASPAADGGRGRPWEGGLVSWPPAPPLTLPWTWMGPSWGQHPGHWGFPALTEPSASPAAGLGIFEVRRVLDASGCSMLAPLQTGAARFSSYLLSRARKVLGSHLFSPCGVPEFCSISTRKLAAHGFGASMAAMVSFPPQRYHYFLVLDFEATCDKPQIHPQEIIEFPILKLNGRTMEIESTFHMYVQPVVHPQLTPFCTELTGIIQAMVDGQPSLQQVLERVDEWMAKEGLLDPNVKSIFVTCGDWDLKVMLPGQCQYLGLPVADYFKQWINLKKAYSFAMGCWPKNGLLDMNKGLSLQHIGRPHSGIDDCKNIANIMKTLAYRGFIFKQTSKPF
UniProt P28715: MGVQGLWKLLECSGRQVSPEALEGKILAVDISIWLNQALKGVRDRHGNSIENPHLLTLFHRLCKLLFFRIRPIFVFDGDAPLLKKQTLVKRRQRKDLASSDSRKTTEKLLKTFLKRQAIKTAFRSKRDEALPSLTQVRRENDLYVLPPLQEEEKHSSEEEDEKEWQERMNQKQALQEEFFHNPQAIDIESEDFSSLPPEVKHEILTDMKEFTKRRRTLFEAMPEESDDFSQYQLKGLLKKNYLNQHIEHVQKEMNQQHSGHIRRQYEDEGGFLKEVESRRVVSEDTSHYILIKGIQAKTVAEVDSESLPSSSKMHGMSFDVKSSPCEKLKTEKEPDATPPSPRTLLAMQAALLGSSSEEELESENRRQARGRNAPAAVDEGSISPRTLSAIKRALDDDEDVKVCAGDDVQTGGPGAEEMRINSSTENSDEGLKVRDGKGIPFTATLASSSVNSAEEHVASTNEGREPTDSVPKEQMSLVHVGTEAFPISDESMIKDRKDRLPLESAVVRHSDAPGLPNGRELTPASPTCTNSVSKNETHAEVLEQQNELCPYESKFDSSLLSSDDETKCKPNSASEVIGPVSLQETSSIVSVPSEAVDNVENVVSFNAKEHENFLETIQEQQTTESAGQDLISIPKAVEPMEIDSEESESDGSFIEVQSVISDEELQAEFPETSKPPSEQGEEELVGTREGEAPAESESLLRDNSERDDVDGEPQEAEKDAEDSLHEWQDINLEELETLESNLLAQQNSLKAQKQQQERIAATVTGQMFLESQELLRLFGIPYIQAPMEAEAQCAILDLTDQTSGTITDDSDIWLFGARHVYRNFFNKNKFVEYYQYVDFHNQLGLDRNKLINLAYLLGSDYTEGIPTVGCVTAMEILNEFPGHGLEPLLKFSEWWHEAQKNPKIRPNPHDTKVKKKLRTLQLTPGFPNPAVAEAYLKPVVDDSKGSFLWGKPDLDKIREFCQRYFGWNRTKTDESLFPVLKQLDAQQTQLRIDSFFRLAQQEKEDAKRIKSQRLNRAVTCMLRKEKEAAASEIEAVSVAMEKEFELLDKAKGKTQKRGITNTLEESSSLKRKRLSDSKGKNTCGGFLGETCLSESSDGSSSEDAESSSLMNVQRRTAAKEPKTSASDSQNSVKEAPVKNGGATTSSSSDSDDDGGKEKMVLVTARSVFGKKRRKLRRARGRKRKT
UniProt O75063: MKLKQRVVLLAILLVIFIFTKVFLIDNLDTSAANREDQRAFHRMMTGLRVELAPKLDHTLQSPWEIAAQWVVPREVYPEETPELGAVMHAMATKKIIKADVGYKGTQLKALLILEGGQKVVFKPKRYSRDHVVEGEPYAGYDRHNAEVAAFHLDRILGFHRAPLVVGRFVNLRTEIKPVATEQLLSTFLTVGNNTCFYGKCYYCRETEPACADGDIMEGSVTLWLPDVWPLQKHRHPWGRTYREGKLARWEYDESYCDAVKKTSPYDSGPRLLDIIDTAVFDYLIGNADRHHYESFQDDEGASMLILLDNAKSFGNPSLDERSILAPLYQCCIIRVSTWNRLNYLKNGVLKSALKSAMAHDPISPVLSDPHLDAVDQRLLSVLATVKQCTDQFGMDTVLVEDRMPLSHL

Columns and labels:
Experiment in all cases: log2 fold change, soluble protein after heating vs DMSO (PISA); higher = thermal stabilisation; K562 cells, 10 uM, 30 min; active = over 0.2 and 3.5 SD of the protein, either way, in both replicates (recomputed)
[1] = compound: COC1=CC=C(C=C1)CN2C=CC3=C2C=C(C=C3)C(=O)NO
How it was run: (§1)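 Thermal stability values are relative to control samples and come from duplicates. They are expressed as log2 fold changes. For measurement, K562 cells (2×10^6 cells/mL) received 10 μM compound for 30 min, and aliquots were heated for 3 min over 48°C-58°C, pooled, and extracted at 4°C in PBS with 0.5% NP-40. Soluble protein, the supernatant after 21,000xg for 90 min, was quantified by TMTpro 16plex LC-MS/MS with equalised channel sums.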

filanesib = compound: CON(C)C(=O)N1N=C(c2cc(F)ccc2F)S[C@@]1(CCCN)c1ccccc1 [filanesib]
How it was run: as §1

zotarolimus = compound: CO[C@H]1C[C@@H]2CC[C@@H](C)[C@@](O)(O2)C(=O)C(=O)N2CCCC[C@H]2C(=O)O[C@H]([C@H](C)C[C@@H]2CC[C@H](n3cnnn3)[C@H](OC)C2)CC(=O)[C@H](C)/C=C(\C)[C@@H](O)[C@@H](OC)C(=O)[C@H](C)C[C@H](C)/C=C/C=C/C=C/1C [zotarolimus]
How it was run: as §1

idasanutlin = compound: COc1cc(C(=O)O)ccc1NC(=O)[C@@H]1N[C@@H](CC(C)(C)C)[C@](C#N)(c2ccc(Cl)cc2F)[C@H]1c1cccc(Cl)c1F [idasanutlin]
How it was run: as §1

alisertib = compound: COc1cc(Nc2ncc3c(n2)-c2ccc(Cl)cc2C(c2c(F)cccc2OC)=NC3)ccc1C(=O)O [alisertib]
How it was run: as §1

[2] = compound: COc1cc2nc(-c3cc(F)ccc3O)nc(N[C@@H]3CNC[C@H]3C(C)(C)O)c2cc1OC
How it was run: as §1

gefitinib = compound: COc1cc2ncnc(Nc3ccc(F)c(Cl)c3)c2cc1OCCCN1CCOCC1 [gefitinib]
How it was run: as §1

[3] = compound: COc1cccc2cc(-c3nc([C@H]4CC[C@H](C(=O)O)CC4)n4ncnc(N)c34)[nH]c12
How it was run: as §1

lapatinib = compound: CS(=O)(=O)CCNCc1ccc(-c2ccc3ncnc(Nc4ccc(OCc5cccc(F)c5)c(Cl)c4)c3c2)o1 [lapatinib]
How it was run: as §1

pictilisib = compound: CS(=O)(=O)N1CCN(Cc2cc3nc(-c4cccc5[nH]ncc45)nc(N4CCOCC4)c3s2)CC1 [pictilisib]
How it was run: as §1

[4] = compound: CS(=O)(=O)c1ccc(-c2cnc(N)c(C(=O)Nc3ccccc3)n2)cc1
How it was run: as §1

crizotinib = compound: C[C@@H](Oc1cc(-c2cnn(C3CCNCC3)c2)cnc1N)c1c(Cl)ccc(F)c1Cl [crizotinib]
How it was run: as §1

[5] = compound: C[C@@H]1COCCN1C2=NC(=NC(=C2)C3(CC3)S(=O)(=O)C)C4=C5C=CNC5=CC=C4
How it was run: as §1

[6] = compound: C[C@H](C1=CC=C(C=C1)C(=O)NC2=C3C=CNC3=NC=C2)N
How it was run: as §1

gandotinib = compound: Cc1cc(Nc2cc(CN3CCOCC3)c3nc(C)c(Cc4ccc(Cl)cc4F)n3n2)n[nH]1 [gandotinib]
How it was run: as §1

[7] = compound: Cc1cc(SCc2sc(-c3ccc(C(F)(F)F)cc3)nc2C)ccc1OCC(=O)O
How it was run: as §1

doramapimod = compound: Cc1ccc(-n2nc(C(C)(C)C)cc2NC(=O)Nc2ccc(OCCN3CCOCC3)c3ccccc23)cc1 [doramapimod]
How it was run: as §1

ispinesib = compound: Cc1ccc(C(=O)N(CCCN)[C@@H](c2nc3cc(Cl)ccc3c(=O)n2Cc2ccccc2)C(C)C)cc1 [ispinesib]
How it was run: as §1

duvelisib = compound: C[C@H](Nc1ncnc2nc[nH]c12)c1cc2cccc(Cl)c2c(=O)n1-c1ccccc1 [duvelisib]
How it was run: as §1

tozasertib = compound: Cc1cc(Nc2cc(N3CCN(C)CC3)nc(Sc3ccc(NC(=O)C4CC4)cc3)n2)n[nH]1 [tozasertib]
How it was run: as §1

| Target | log2 fold change [1] | log2 fold change (filanesib) | log2 fold change (zotarolimus) | log2 fold change (idasanutlin) | log2 fold change (alisertib) | log2 fold change [2] | log2 fold change (gefitinib) | log2 fold change [3] | log2 fold change (lapatinib) | log2 fold change (pictilisib) | log2 fold change [4] | log2 fold change (crizotinib) | log2 fold change [5] | log2 fold change [6] | log2 fold change (gandotinib) | log2 fold change [7] | log2 fold change (doramapimod) | log2 fold change (ispinesib) | log2 fold change (duvelisib) | log2 fold change (tozasertib) |
| --- | --- | --- | --- | --- | --- | --- | --- | --- | --- | --- | --- | --- | --- | --- | --- | --- | --- | --- | --- | --- |
| EXOC5 (UniProt O00471) | inactive: -0.005 | inactive: -0.051 | inactive: 0.089 | inactive: -0.079 | inactive: -0.01 | inactive: 0.123 | inactive: -0.024 | inactive: -0.015 | inactive: -0.028 | inactive: -0.055 | inactive: -0.02 | active: -0.279 | inactive: -0.017 | inactive: 0.015 | inactive: -0.129 | inactive: 0.101 | inactive: 0.008 | active: -0.342 | – | – |
| EXOSC3 (UniProt Q9NQT5) | inactive: 0.012 | inactive: 0.036 | inactive: 0.028 | inactive: -0.065 | inactive: -0.102 | inactive: 0.008 | inactive: -0.025 | inactive: -0.025 | inactive: 0.036 | inactive: -0.012 | inactive: -0.075 | inactive: -0.021 | inactive: -0.027 | inactive: 0.077 | inactive: -0.004 | inactive: 0.031 | inactive: 0.029 | inactive: -0.021 | inactive: 0.02 | inactive: -0.05 |
| ETFB (UniProt P38117) | inactive: -0.029 | inactive: -0.065 | inactive: 0.008 | inactive: 0.006 | inactive: -0.068 | inactive: 0.022 | inactive: 0.011 | inactive: 0.023 | inactive: -0.036 | inactive: 0.037 | inactive: 0.047 | inactive: 0.014 | inactive: 0.015 | inactive: -0.05 | inactive: 0.017 | inactive: -0.061 | inactive: -0.009 | inactive: 0.015 | inactive: 0.004 | inactive: -0.046 |
| ERVK3-1, A0A0U1RQV1 | inactive: -0.029 | inactive: -0.064 | inactive: -0.009 | inactive: 0.064 | inactive: -0.07 | inactive: -0.184 | inactive: 0.027 | inactive: 0.051 | inactive: -0.091 | inactive: 0.016 | inactive: 0.013 | inactive: 0.112 | inactive: -0.043 | inactive: -0.122 | inactive: 0.118 | inactive: -0.039 | inactive: 0.037 | inactive: 0.238 | inactive: 0.107 | inactive: 0.072 |
| F11R (UniProt Q9Y624) | inactive: 0.024 | inactive: 0.055 | inactive: 0.02 | inactive: -0.032 | inactive: -0.048 | inactive: 0.059 | inactive: 0.017 | inactive: 0.074 | inactive: -0.05 | inactive: 0.015 | inactive: 0.008 | inactive: 0.154 | inactive: 0.022 | inactive: -0.078 | inactive: -0.005 | inactive: -0.039 | inactive: -0.039 | inactive: 0.122 | inactive: 0.039 | inactive: -0.034 |
| EXOSC8 (UniProt Q96B26) | inactive: -0.001 | inactive: 0.038 | inactive: 0.004 | inactive: 0.024 | inactive: -0.043 | inactive: -0.026 | inactive: -0.032 | inactive: 0.028 | inactive: -0.001 | inactive: -0.025 | inactive: 0.033 | inactive: 0.059 | inactive: -0.065 | inactive: -0.046 | inactive: -0.038 | inactive: -0.04 | inactive: -0.007 | inactive: 0.036 | inactive: 0.027 | inactive: -0.01 |
| FAH isoform 2 (UniProt P16930) | inactive: -0.054 | inactive: -0.065 | inactive: -0.031 | inactive: -0.288 | inactive: -0.077 | inactive: 0.077 | inactive: -0.088 | inactive: 0.034 | inactive: -0.006 | inactive: 0.082 | inactive: -0.083 | inactive: -0.068 | inactive: 0.116 | inactive: 0.054 | inactive: -0.493 | inactive: -0.079 | inactive: 0.067 | inactive: -0.126 | inactive: 0.091 | inactive: -0.056 |
| ETNPPL (UniProt Q8TBG4) | inactive: -0.244 | inactive: 0.189 | inactive: -0.197 | inactive: 0.07 | inactive: -0.009 | inactive: 0.017 | inactive: -0.039 | inactive: 0.252 | inactive: -0.108 | inactive: -0.095 | inactive: -0.023 | inactive: -0.132 | inactive: 0.063 | inactive: 0.136 | inactive: -0.186 | inactive: -0.07 | inactive: 0.066 | inactive: 0.017 | inactive: -0.064 | inactive: -0.001 |
| ERAP1 isoform 2 (UniProt Q9NZ08) | inactive: -0.091 | inactive: 0.056 | inactive: 0.029 | inactive: 0.039 | inactive: -0.109 | inactive: -0.015 | inactive: -0.017 | inactive: -0.087 | inactive: 0.072 | inactive: -0.019 | inactive: 0.023 | inactive: 0.015 | inactive: -0.028 | inactive: 0.071 | inactive: 0.083 | inactive: 0.028 | inactive: 0.011 | inactive: -0.016 | inactive: -0.027 | inactive: 0.039 |
| EPCAM (UniProt P16422) | inactive: 0.008 | inactive: 0.025 | inactive: 0 | inactive: -0.031 | inactive: 0.015 | inactive: 0.033 | inactive: -0.1 | inactive: -0.012 | inactive: 0.015 | inactive: 0.016 | inactive: 0.067 | inactive: 0.004 | inactive: 0.046 | inactive: -0.074 | inactive: -0.01 | inactive: -0.005 | inactive: 0.016 | inactive: 0.024 | inactive: 0.049 | inactive: 0.013 |
| EXT2 isoform 3 (UniProt Q93063) | inactive: -0.028 | inactive: 0.048 | inactive: 0.058 | inactive: 0.111 | inactive: -0.101 | inactive: -0.014 | inactive: 0.014 | inactive: 0.007 | inactive: 0.087 | inactive: -0.023 | inactive: -0.071 | inactive: -0.037 | inactive: -0.08 | inactive: 0.203 | inactive: 0.097 | inactive: 0.082 | inactive: 0.122 | inactive: -0.104 | inactive: -0.019 | inactive: -0.02 |
| ERI3 (UniProt O43414) | inactive: -0.009 | inactive: -0.046 | inactive: -0.013 | inactive: -0.043 | inactive: 0.032 | inactive: 0.004 | inactive: 0.007 | inactive: 0.055 | inactive: -0.031 | inactive: 0.039 | inactive: 0.043 | inactive: -0.071 | inactive: 0.064 | inactive: -0.042 | inactive: -0.036 | inactive: 0.024 | inactive: -0.032 | inactive: 0.027 | inactive: 0.03 | inactive: -0.04 |
| ERCC5 (UniProt P28715) | inactive: 0.063 | inactive: 0.072 | inactive: 0.037 | inactive: -0.034 | inactive: 0.084 | inactive: -0.043 | inactive: -0.057 | inactive: -0.149 | inactive: 0.037 | inactive: 0.062 | inactive: -0.033 | inactive: -0.057 | inactive: -0.005 | inactive: 0.045 | inactive: -0.179 | inactive: 0.073 | inactive: 0.056 | inactive: 0.041 | inactive: -0.025 | inactive: -0.212 |
| EPB41L2 (UniProt O43491) | inactive: 0.022 | inactive: 0.056 | inactive: -0.01 | inactive: -0.028 | inactive: -0.014 | inactive: 0.007 | inactive: 0.054 | inactive: -0.004 | inactive: 0 | inactive: 0.031 | inactive: 0.027 | inactive: 0.028 | inactive: 0.094 | inactive: -0.113 | inactive: -0.043 | inactive: -0.051 | inactive: -0.011 | inactive: 0.011 | inactive: 0.011 | inactive: -0.056 |
| FAM20B (UniProt O75063) | inactive: -0.082 | inactive: 0.039 | inactive: 0.055 | inactive: -0.068 | inactive: -0.018 | inactive: 0.006 | inactive: 0.008 | inactive: 0.006 | inactive: -0.075 | inactive: -0.026 | inactive: -0.059 | inactive: 0.09 | inactive: 0.004 | inactive: -0.049 | inactive: -0.086 | inactive: 0.006 | inactive: 0.032 | inactive: -0.027 | inactive: -0.025 | inactive: -0.003 |
| EPS15L1 isoform 2 (UniProt Q9UBC2) | inactive: 0.029 | inactive: -0.068 | inactive: -0.024 | inactive: -0.015 | inactive: -0.021 | inactive: 0.023 | inactive: -0.048 | inactive: -0.039 | inactive: 0.042 | inactive: 0.01 | inactive: 0.019 | inactive: -0.022 | inactive: -0.039 | inactive: 0.01 | inactive: -0.015 | inactive: 0.034 | inactive: 0 | inactive: -0.01 | inactive: 0 | inactive: 0.09 |

As a short view, part of the list above:

| Target | log2 fold change [1] | log2 fold change (filanesib) | log2 fold change (zotarolimus) | log2 fold change (idasanutlin) | log2 fold change (alisertib) | log2 fold change [2] | log2 fold change (gefitinib) | log2 fold change [3] | log2 fold change (lapatinib) | log2 fold change (pictilisib) | log2 fold change [4] | log2 fold change (crizotinib) | log2 fold change [5] | log2 fold change [6] | log2 fold change (gandotinib) | log2 fold change [7] | log2 fold change (doramapimod) | log2 fold change (ispinesib) | log2 fold change (duvelisib) | log2 fold change (tozasertib) |
| --- | --- | --- | --- | --- | --- | --- | --- | --- | --- | --- | --- | --- | --- | --- | --- | --- | --- | --- | --- | --- |
| ERI3 (UniProt O43414) | inactive: -0.009 | inactive: -0.046 | inactive: -0.013 | inactive: -0.043 | inactive: 0.032 | inactive: 0.004 | inactive: 0.007 | inactive: 0.055 | inactive: -0.031 | inactive: 0.039 | inactive: 0.043 | inactive: -0.071 | inactive: 0.064 | inactive: -0.042 | inactive: -0.036 | inactive: 0.024 | inactive: -0.032 | inactive: 0.027 | inactive: 0.03 | inactive: -0.04 |
| ERCC5 (UniProt P28715) | inactive: 0.063 | inactive: 0.072 | inactive: 0.037 | inactive: -0.034 | inactive: 0.084 | inactive: -0.043 | inactive: -0.057 | inactive: -0.149 | inactive: 0.037 | inactive: 0.062 | inactive: -0.033 | inactive: -0.057 | inactive: -0.005 | inactive: 0.045 | inactive: -0.179 | inactive: 0.073 | inactive: 0.056 | inactive: 0.041 | inactive: -0.025 | inactive: -0.212 |
